# Measurements reported in the supplement of paper PMC8728848.
# Some of the results follow.
# Assays:
# Experiment in all cases: glycan array binding signal (z-score within array); higher = stronger binding
# Conditions in all cases: glycan notation: IUPAC condensed, linker removed
# GlcNAc(b1-4)GlcNAc = biological target: GlcNAc(b1-4)GlcNAc
# Outline: (§1)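 Glycan array data came from 3228 arrays in the Consortium for Functional Glycomics database, and only arrays with an available protein sequence were kept. Glycan names were put into IUPAC-condensed notation, and columns mapping to the same glycan were averaged. The binding signal is a within-array Z-score, averaged across arrays of one protein sequence run at different concentrations or buffers and across linkers. A negative Z-score can be read as non-binding.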
# [1] = biological target: GlcNAc(b1-4)GlcNAc(b1-4)GlcNAc
# Outline: as §1
# [2] = biological target: GlcNAc(b1-4)GlcNAc(b1-4)GlcNAc(b1-4)GlcNAc(b1-4)GlcNAc
# Outline: as §1
# [3] = biological target: GlcNAc(b1-4)GlcNAc(b1-4)GlcNAc(b1-4)GlcNAc(b1-4)GlcNAc(b1-4)GlcNAc
# Outline: as §1
# [4] = biological target: GlcNAc(b1-4)[GlcNAc(b1-6)]GalNAc
# Outline: as §1
# [5] = biological target: GlcNAc(b1-6)Gal(b1-4)GlcNAc
# Outline: as §1
# GlcNAc(b1-6)GalNAc = biological target: GlcNAc(b1-6)GalNAc
# Outline: as §1
# GlcNAc3Prop(b1-4)GlcNAc = biological target: GlcNAc3Prop(b1-4)GlcNAc
# Outline: as §1
# [6] = biological target: GlcNAc6S(b1-3)Gal(b1-4)GlcNAc
# Outline: as §1
# Kdn(a2-3)Gal(b1-3)GalNAc = biological target: Kdn(a2-3)Gal(b1-3)GalNAc
# Outline: as §1
# Kdn(a2-3)Gal(b1-3)GlcNAc = biological target: Kdn(a2-3)Gal(b1-3)GlcNAc
# Outline: as §1
# Kdn(a2-3)Gal(b1-4)Glc = biological target: Kdn(a2-3)Gal(b1-4)Glc
# Outline: as §1
# Kdn(a2-3)Gal(b1-4)GlcNAc = biological target: Kdn(a2-3)Gal(b1-4)GlcNAc
# Outline: as §1
# [7] = biological target: Kdn(a2-3)Gal(b1-4)[Fuc(a1-3)]GlcNAc
# Outline: as §1
# Kdn(a2-6)Gal(b1-4)GlcNAc = biological target: Kdn(a2-6)Gal(b1-4)GlcNAc
# Outline: as §1
# [8] = biological target: Man(a1-2)Man(a1-2)Man(a1-3)Man
# Outline: as §1
# [9] = biological target: Man(a1-2)Man(a1-2)Man(a1-6)[Man(a1-3)]Man
# Outline: as §1
# Man(a1-2)Man(a1-3)Man = biological target: Man(a1-2)Man(a1-3)Man
# Outline: as §1
# [10] = biological target: Man(a1-2)Man(a1-3)[Man(a1-2)Man(a1-6)]Man
# Outline: as §1
# [11] = biological target: Man(a1-2)Man(a1-3)[Man(a1-2)Man(a1-6)]Man(a1-6)[Man(a1-2)Man(a1-2)Man(a1-3)]Man
# Outline: as §1
# [12] = biological target: Man(a1-2)Man(a1-3)[Man(a1-2)Man(a1-6)]Man(a1-6)[Man(a1-2)Man(a1-2)Man(a1-3)]Man(b1-4)GlcNAc(b1-4)GlcNAc
# Outline: as §1
# [13] = biological target: Man(a1-2)Man(a1-3)[Man(a1-6)]Man(a1-6)[Man(a1-2)Man(a1-3)]Man(b1-4)GlcNAc(b1-4)GlcNAc
# Outline: as §1
# [14] = biological target: Man(a1-2)Man(a1-6)[Man(a1-3)]Man(a1-6)[Man(a1-2)Man(a1-2)Man(a1-3)]Man
# Outline: as §1
# [15] = biological target: Man(a1-2)Man(a1-6)[Man(a1-3)]Man(a1-6)[Man(a1-2)Man(a1-2)Man(a1-3)]Man(b1-4)GlcNAc(b1-4)GlcNAc
# Outline: as §1
# Man(a1-3)[Man(a1-6)]Man = biological target: Man(a1-3)[Man(a1-6)]Man
# Outline: as §1
# [16] = biological target: Man(a1-3)[Man(a1-6)]Man(a1-6)[Man(a1-2)Man(a1-3)]Man(b1-4)GlcNAc(b1-4)GlcNAc
# Outline: as §1
# [17] = biological target: Man(a1-3)[Man(a1-6)]Man(a1-6)[Man(a1-3)]Man
# Outline: as §1
# [18] = biological target: Man(a1-3)[Man(a1-6)]Man(a1-6)[Man(a1-3)]Man(b1-4)GlcNAc(b1-4)GlcNAc
# Outline: as §1
# [19] = biological target: Man(a1-3)[Man(a1-6)]Man(b1-4)GlcNAc(b1-4)GlcNAc
# Outline: as §1
# [20] = biological target: Man(a1-3)[Man(a1-6)]Man(b1-4)GlcNAc(b1-4)[Fuc(a1-6)]GlcNAc
# Outline: as §1
# Man(a1-6)Man = biological target: Man(a1-6)Man
# Outline: as §1
# Man(b1-4)GlcNAc = biological target: Man(b1-4)GlcNAc
# Outline: as §1
# MurNAc(b1-4)GlcNAc = biological target: MurNAc(b1-4)GlcNAc
# Outline: as §1
# Neu5Ac(a2-3)Gal = biological target: Neu5Ac(a2-3)Gal
# Outline: as §1
# [21] = biological target: Neu5Ac(a2-3)Gal(b1-3)GalNAc
# Outline: as §1
# [22] = biological target: Neu5Ac(a2-3)Gal(b1-3)GalNAc(b1-3)Gal(a1-4)Gal(b1-4)Glc
# Outline: as §1
# [23] = biological target: Neu5Ac(a2-3)Gal(b1-3)GalNAc(b1-4)Gal(b1-4)Glc
# Outline: as §1
# [24] = biological target: Neu5Ac(a2-3)Gal(b1-3)GalNAc(b1-4)[Neu5Ac(a2-3)]Gal(b1-4)Glc
# Outline: as §1
# [25] = biological target: Neu5Ac(a2-3)Gal(b1-3)GalNAc(b1-4)[Neu5Ac(a2-8)Neu5Ac(a2-3)]Gal(b1-4)Glc
# Outline: as §1
# [26] = biological target: Neu5Ac(a2-3)Gal(b1-3)GalNAc6S
# Outline: as §1
# [27] = biological target: Neu5Ac(a2-3)Gal(b1-3)GlcNAc
# Outline: as §1
# [28] = biological target: Neu5Ac(a2-3)Gal(b1-3)GlcNAc(b1-2)Man
# Outline: as §1
# [29] = biological target: Neu5Ac(a2-3)Gal(b1-3)GlcNAc(b1-2)Man(a1-3)[GlcNAc(b1-4)][Neu5Ac(a2-3)Gal(b1-3)GlcNAc(b1-2)Man(a1-6)]Man(b1-4)GlcNAc(b1-4)GlcNAc
# Outline: as §1
binder,measurement,setting,value
KISKRILTGKK [NK11 (Sus scrofa)],glycan array binding signal (z-score),GlcNAc(b1-4)GlcNAc,-0.53
same,glycan array binding signal (z-score),[1],-0.597
same,glycan array binding signal (z-score),[2],0.061
same,glycan array binding signal (z-score),[3],-0.704
same,glycan array binding signal (z-score),[4],-0.483
same,glycan array binding signal (z-score),[5],0.185
same,glycan array binding signal (z-score),GlcNAc(b1-6)GalNAc,-0.38
same,glycan array binding signal (z-score),GlcNAc3Prop(b1-4)GlcNAc,0.745
same,glycan array binding signal (z-score),[6],0.058
same,glycan array binding signal (z-score),Kdn(a2-3)Gal(b1-3)GalNAc,0.538
same,glycan array binding signal (z-score),Kdn(a2-3)Gal(b1-3)GlcNAc,1.01
same,glycan array binding signal (z-score),Kdn(a2-3)Gal(b1-4)Glc,-0.786
same,glycan array binding signal (z-score),Kdn(a2-3)Gal(b1-4)GlcNAc,-0.4
same,glycan array binding signal (z-score),[7],-0.388
same,glycan array binding signal (z-score),Kdn(a2-6)Gal(b1-4)GlcNAc,0.628
same,glycan array binding signal (z-score),[8],-0.614
same,glycan array binding signal (z-score),[9],-0.346
same,glycan array binding signal (z-score),Man(a1-2)Man(a1-3)Man,-0.748
same,glycan array binding signal (z-score),[10],-0.627
same,glycan array binding signal (z-score),[11],0.147
same,glycan array binding signal (z-score),[12],-0.55
same,glycan array binding signal (z-score),[13],-0.763
same,glycan array binding signal (z-score),[14],-0.682
same,glycan array binding signal (z-score),[15],-0.141
same,glycan array binding signal (z-score),Man(a1-3)[Man(a1-6)]Man,0.105
same,glycan array binding signal (z-score),[16],0.459
same,glycan array binding signal (z-score),[17],-1.13
same,glycan array binding signal (z-score),[18],-0.51
same,glycan array binding signal (z-score),[19],-0.391
same,glycan array binding signal (z-score),[20],0.702
same,glycan array binding signal (z-score),Man(a1-6)Man,-0.205
same,glycan array binding signal (z-score),Man(b1-4)GlcNAc,-0.365
same,glycan array binding signal (z-score),MurNAc(b1-4)GlcNAc,-0.745
same,glycan array binding signal (z-score),Neu5Ac(a2-3)Gal,-0.568
same,glycan array binding signal (z-score),[21],0.104
same,glycan array binding signal (z-score),[22],-0.397
same,glycan array binding signal (z-score),[23],-1.55
same,glycan array binding signal (z-score),[24],0.981
same,glycan array binding signal (z-score),[25],-0.297
same,glycan array binding signal (z-score),[26],1.06
same,glycan array binding signal (z-score),[27],0.637
same,glycan array binding signal (z-score),[28],-1.85
same,glycan array binding signal (z-score),[29],0.854

# Part of the list above, bar-delimited:
binder | measurement | setting | value
KISKRILTGKK [NK11 (Sus scrofa)] | glycan array binding signal (z-score) | [7] | -0.388
same | glycan array binding signal (z-score) | [12] | -0.55
